Measurements: the supplement of paper PMC12595434, “Development of retinoid nuclear receptor pathway antagonists through targeting aldehyde dehydrogenase 1A3” (iScience, 2025)
The other results are listed elsewhere or left out. Single values of this set are uncertain.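 Tm was set to 64 °C where no melting was found, and many curves are irregular.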

Protein sequences, listed by entry. Tags and fused reporters are not part of them. Lines headed by an entry give the natural chain unless they say otherwise; changes in a name come on top.
UniProt P20933: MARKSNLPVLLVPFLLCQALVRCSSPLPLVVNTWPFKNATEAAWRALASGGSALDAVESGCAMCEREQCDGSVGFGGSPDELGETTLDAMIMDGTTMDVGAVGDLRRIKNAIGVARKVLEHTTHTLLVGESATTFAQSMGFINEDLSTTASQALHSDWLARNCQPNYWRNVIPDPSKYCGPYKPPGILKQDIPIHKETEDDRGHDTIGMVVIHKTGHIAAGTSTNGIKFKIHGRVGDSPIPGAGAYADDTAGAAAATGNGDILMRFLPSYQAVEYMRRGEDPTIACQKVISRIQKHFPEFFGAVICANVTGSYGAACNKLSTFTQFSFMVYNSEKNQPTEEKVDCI
UniProt P21580: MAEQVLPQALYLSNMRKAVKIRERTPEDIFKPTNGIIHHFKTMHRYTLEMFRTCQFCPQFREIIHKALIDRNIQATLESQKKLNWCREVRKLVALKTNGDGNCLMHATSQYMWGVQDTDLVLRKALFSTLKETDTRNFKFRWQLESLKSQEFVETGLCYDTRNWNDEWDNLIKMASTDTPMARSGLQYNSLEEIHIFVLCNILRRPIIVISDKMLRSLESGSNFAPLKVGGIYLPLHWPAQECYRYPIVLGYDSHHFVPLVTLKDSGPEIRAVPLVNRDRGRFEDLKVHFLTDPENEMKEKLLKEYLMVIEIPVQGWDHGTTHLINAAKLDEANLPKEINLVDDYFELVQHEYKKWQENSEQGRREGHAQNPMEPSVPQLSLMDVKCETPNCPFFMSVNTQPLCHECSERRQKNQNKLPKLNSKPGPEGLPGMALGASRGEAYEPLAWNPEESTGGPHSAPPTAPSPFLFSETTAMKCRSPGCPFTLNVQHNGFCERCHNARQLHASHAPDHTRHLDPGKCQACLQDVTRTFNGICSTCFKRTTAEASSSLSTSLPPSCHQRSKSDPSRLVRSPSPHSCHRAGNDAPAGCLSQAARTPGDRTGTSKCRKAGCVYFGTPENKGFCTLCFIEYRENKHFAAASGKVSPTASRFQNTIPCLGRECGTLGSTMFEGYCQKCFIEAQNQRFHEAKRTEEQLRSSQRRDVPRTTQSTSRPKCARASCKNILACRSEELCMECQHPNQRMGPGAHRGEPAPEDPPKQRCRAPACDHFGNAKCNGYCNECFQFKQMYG
UniProt P22059, whole entry: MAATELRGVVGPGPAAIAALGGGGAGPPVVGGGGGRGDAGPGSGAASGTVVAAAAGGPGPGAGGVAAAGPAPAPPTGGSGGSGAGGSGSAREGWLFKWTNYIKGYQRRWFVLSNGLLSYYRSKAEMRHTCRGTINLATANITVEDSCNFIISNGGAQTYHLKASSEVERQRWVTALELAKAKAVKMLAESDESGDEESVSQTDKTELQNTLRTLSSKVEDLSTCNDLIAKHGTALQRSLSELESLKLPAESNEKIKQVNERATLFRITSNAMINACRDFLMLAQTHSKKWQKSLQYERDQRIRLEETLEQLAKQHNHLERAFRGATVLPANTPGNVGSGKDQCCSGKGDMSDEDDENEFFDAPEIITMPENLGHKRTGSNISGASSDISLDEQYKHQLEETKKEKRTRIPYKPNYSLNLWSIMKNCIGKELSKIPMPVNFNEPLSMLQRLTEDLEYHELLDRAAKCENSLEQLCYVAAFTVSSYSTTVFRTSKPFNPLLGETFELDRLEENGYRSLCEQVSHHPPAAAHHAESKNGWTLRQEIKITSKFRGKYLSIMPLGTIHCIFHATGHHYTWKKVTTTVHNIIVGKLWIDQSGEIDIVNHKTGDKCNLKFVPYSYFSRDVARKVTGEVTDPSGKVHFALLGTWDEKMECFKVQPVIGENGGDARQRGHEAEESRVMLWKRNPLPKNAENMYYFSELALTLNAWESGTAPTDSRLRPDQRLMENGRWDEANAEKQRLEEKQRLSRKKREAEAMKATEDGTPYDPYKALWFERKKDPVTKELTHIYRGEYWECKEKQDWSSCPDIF
UniProt P21675, whole entry: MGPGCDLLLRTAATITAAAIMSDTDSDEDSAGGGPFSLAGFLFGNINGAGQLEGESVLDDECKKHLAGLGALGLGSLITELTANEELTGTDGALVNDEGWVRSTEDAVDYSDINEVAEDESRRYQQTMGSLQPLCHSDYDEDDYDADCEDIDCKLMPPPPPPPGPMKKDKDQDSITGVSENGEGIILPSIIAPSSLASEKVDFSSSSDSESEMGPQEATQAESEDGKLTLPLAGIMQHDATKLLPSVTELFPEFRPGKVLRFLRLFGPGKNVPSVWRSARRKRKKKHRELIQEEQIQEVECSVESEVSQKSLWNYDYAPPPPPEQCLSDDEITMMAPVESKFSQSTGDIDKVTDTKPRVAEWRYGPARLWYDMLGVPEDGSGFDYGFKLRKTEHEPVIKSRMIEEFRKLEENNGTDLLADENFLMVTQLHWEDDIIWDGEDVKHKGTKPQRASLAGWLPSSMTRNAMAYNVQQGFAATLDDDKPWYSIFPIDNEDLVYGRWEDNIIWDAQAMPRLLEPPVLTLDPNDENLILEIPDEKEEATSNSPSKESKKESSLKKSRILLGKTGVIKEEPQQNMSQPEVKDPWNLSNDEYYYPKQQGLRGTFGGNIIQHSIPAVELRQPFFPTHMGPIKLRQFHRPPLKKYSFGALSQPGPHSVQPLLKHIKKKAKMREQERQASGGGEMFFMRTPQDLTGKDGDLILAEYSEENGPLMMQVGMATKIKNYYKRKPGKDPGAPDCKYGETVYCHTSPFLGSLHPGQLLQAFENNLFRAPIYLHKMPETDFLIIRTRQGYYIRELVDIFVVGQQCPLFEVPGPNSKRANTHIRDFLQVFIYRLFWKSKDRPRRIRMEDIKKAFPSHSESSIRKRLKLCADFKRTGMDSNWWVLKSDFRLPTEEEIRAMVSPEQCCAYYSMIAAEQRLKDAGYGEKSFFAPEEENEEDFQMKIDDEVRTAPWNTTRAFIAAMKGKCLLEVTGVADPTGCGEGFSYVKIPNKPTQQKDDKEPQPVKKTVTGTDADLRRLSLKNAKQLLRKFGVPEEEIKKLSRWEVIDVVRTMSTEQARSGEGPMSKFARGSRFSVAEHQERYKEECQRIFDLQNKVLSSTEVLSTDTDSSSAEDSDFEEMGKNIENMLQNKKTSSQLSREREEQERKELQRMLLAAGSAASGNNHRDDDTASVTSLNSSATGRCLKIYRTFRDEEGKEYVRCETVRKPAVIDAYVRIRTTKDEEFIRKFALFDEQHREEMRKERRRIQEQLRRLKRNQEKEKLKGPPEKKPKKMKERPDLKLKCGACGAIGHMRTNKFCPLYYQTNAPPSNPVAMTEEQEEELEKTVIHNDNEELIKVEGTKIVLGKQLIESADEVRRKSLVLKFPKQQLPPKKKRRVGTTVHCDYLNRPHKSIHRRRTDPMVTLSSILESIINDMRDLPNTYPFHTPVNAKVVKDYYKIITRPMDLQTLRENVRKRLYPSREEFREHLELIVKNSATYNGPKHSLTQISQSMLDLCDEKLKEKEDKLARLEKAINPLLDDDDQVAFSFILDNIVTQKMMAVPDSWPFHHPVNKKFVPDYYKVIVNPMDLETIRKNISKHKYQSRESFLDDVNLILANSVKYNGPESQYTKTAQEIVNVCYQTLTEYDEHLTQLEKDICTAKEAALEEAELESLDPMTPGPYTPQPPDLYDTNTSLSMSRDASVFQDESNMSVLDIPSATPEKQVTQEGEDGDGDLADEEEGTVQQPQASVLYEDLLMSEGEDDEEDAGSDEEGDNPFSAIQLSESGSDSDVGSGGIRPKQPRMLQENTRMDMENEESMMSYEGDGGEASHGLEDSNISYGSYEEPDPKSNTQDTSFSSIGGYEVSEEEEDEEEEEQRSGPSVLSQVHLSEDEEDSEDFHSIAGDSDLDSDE
UniProt P32121, whole entry: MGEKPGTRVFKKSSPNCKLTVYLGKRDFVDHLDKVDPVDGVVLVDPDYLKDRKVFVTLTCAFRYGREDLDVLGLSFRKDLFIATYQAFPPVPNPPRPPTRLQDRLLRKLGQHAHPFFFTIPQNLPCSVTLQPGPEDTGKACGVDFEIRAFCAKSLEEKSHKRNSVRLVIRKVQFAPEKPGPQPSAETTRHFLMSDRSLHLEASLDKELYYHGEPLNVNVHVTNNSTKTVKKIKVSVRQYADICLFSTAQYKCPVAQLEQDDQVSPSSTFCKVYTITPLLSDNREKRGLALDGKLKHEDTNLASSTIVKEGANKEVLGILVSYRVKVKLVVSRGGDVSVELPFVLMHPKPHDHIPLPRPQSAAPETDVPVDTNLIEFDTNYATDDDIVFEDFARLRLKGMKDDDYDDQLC
UniProt P35249, whole entry: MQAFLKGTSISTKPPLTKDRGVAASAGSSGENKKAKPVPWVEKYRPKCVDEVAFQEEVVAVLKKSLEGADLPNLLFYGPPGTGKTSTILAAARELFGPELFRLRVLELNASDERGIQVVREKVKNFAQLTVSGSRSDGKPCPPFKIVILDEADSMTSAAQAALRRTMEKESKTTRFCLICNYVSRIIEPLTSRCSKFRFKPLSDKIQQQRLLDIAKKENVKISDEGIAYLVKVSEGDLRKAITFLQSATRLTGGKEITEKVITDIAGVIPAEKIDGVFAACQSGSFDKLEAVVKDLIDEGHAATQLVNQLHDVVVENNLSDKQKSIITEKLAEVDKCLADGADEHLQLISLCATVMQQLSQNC
UniProt P35611: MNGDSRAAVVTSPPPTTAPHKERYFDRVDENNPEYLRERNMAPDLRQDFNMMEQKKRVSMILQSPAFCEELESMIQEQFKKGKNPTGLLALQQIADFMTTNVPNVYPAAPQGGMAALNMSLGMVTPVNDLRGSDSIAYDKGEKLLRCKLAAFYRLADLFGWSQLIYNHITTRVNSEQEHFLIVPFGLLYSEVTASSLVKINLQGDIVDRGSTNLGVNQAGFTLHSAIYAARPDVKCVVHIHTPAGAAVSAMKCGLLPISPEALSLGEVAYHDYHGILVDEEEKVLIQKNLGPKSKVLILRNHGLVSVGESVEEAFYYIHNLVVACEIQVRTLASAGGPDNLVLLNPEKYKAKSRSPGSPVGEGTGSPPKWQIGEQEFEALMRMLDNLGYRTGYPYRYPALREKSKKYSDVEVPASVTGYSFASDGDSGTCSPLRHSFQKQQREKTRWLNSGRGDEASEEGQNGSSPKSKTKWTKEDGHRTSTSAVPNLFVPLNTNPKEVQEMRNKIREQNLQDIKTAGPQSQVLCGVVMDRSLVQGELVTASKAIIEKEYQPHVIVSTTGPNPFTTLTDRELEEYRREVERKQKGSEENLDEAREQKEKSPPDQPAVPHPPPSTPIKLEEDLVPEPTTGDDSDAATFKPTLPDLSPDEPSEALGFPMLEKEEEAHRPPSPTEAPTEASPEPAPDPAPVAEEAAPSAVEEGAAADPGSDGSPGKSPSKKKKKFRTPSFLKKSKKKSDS
UniProt P23246: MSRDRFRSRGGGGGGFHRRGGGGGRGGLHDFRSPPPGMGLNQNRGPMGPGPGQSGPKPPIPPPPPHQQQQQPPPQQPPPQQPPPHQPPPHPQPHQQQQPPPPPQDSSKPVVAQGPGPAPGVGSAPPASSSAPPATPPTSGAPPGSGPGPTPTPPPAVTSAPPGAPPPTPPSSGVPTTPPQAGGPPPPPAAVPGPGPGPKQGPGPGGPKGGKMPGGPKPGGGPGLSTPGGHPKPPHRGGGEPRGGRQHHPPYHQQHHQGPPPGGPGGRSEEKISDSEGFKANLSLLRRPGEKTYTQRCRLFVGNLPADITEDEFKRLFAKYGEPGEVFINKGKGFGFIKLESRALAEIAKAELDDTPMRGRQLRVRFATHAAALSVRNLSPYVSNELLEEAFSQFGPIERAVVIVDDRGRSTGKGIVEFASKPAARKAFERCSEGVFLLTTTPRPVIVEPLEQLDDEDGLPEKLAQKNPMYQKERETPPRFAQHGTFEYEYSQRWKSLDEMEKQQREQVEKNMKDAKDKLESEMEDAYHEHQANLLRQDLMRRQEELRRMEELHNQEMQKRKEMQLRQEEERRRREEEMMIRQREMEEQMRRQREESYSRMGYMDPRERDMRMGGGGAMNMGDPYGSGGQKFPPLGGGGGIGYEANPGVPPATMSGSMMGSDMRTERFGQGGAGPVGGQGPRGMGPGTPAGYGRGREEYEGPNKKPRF
UniProt P26572: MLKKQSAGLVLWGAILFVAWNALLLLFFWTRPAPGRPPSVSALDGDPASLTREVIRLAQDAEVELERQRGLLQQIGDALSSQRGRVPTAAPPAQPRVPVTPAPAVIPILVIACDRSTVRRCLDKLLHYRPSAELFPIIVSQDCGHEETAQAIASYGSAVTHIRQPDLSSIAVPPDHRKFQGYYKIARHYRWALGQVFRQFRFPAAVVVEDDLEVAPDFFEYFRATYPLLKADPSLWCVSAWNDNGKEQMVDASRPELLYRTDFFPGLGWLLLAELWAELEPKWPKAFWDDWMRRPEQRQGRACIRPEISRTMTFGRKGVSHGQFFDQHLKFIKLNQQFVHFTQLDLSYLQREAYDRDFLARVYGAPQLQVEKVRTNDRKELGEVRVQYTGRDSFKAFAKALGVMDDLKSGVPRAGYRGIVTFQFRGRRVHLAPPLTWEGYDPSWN

Compound: CCc1cnccc1C(=O)Nc1cc2c(cc1F)NC(=O)CC2
Assay: melting temperature shift (DMSO Tm minus MBE1-treated Tm) in cellular thermal proteome profiling; higher = less thermal stabilization by MBE1 (negative = stabilized by MBE1)
Details: A375

Target	melting temperature shift (MBE1 concentration: 100 nM) [°C]	melting temperature shift (MBE1 concentration: 1 uM) [°C]
AKT2 (UniProt P31751)	0.47	0.446
UniProt P20933	-0.579	1.25
UniProt P20742	–	-3.99
TNFAIP3 (UniProt P21580)	-0.376	0.295
OSBP (UniProt P22059)	-0.617	-0.268
CFL1 (UniProt P23528)	-1.35	-0.154
S100A11 (UniProt P31949)	-1.11	-2.02
UniProt P35125	-1.25	–
PSMA2 (UniProt P25787)	–	-3.06
CTH (UniProt P32929)	–	0
HMOX2 (UniProt P30519)	0.189	0.0366
RAB5A (UniProt P20339)	-0.366	0.331
PPM1A (UniProt P35813)	-0.0977	0.537
BLVRB (UniProt P30043)	0.891	0.507
UniProt P21589	–	-2.79
DDT (UniProt P30046)	–	-2.5
LAP3 (UniProt P28838)	–	-3.11
UniProt P21675	-0.0256	–
ATP6V1C1 (UniProt P21283)	0.397	0.0305
EEF1D (UniProt P29692)	0.238	0.232
ITGA3 (UniProt P26006)	–	-2.94
ACVR1B (UniProt P36896)	-2.76	0
UniProt P32456	-0.531	–
RXRB (UniProt P28702)	-0.314	-0.538
MCM4 (UniProt P33991)	0.788	0.244

Target	melting temperature shift (MBE1 concentration: 100 nM) [°C]	melting temperature shift (MBE1 concentration: 1 uM) [°C]
UniProt P20592	–	-0.365
HMGB2 (UniProt P26583)	-4.35	-2.79
UniProt P35908	-0.127	0.66
AGL (UniProt P35573)	0.598	0.427
UniProt P24863	-0.731	–
VDAC1 (UniProt P21796)	–	-0.583
PCMT1 (UniProt P22061)	-0.127	0.409
GTF2E2 (UniProt P29084)	0.273	-0.263
DNAJB1 (UniProt P25685)	0.275	-0.0672
PAICS (UniProt P22234)	–	-1.11
CDC25C (UniProt P30307)	-0.874	0.128
UniProt P26378	-1.31	–
BRD2 (UniProt P25440)	-0.314	-0.352
RPL13 (UniProt P26373)	-0.519	0.189
ARRB2 (UniProt P32121)	0.159	0.0244
UniProt P31146	0.666	-0.171
KIF5B (UniProt P33176)	-0.244	0.403
RFC4 (UniProt P35249)	0.0305	0.311
UniProt P24844	-1.04	0.322
UQCRC2 (UniProt P22695)	-0.971	-1.12
UniProt P24821	1.51	0.244
GART (UniProt P22102)	1.09	0.727
SDHB (UniProt P21912)	-0.904	-2.99
UniProt P36507	0.519	0.44
MCM5 (UniProt P33992)	-0.353	0.421

Exported with each value named: entries from further up.
RPL13 (UniProt P26373)
  melting temperature shift (MBE1 concentration: 100 nM) [°C]: -0.519; melting temperature shift (MBE1 concentration: 1 uM) [°C]: 0.189
ARRB2 (UniProt P32121)
  melting temperature shift (MBE1 concentration: 100 nM) [°C]: 0.159; melting temperature shift (MBE1 concentration: 1 uM) [°C]: 0.0244
UniProt P31146
  melting temperature shift (MBE1 concentration: 100 nM) [°C]: 0.666; melting temperature shift (MBE1 concentration: 1 uM) [°C]: -0.171

(cont.)

Target	melting temperature shift (MBE1 concentration: 100 nM) [°C]	melting temperature shift (MBE1 concentration: 1 uM) [°C]
ADD1 (UniProt P35611)	-1.65	1.1
SFPQ (UniProt P23246)	-0.677	-0.494
UniProt P23443	-0.275	0.318
APEX1 (UniProt P27695)	0.837	0.421
UniProt P28370	-0.243	-0.0513
STOM (UniProt P27105)	-2.2	-3.21
MGAT1 (UniProt P26572)	-0.663	0.055
MPI (UniProt P34949)	1.45	0.684
CANX (UniProt P27824)	-1.07	0.0604
HSPA4 (UniProt P34932)	-0.0366	0.287
PEBP1 (UniProt P30086)	-1.61	0.354
PHB (UniProt P35232)	-1.37	-1.71
UniProt P35869	0	-1.37
MSN (UniProt P26038)	-0.329	-0.0613
UniProt P24468	0.714	1.15
CLIP1 (UniProt P30622)	-1.24	-0.59
TKT (UniProt P29401)	-3.82	-0.867
DCTD (UniProt P32321)	-2.7	-5.65
ECHS1 (UniProt P30084)	-0.429	-0.443
SREBF1 (UniProt P36956)	-1.2	-1.51
L1CAM (UniProt P32004)	0.969	-1.43
TGFBR1 (UniProt P36897)	1.9	0.372
GNL1 (UniProt P36915)	0.58	0.104
SHMT2 (UniProt P34897)	-1.02	-1.36
